Publication doi:10.1101/2020.12.09.417345
Results are given in words; binding and its absence hold for the method and conditions named. In cells and extracts the contact can be indirect. Some results given as binding are weak or reduced against the parent protein; the word gives no strength. Where a sequence is shown, tags or fusion partners need not be part of it.

Tests used:
[1] = target: T1, SWEET17-cCFP^C (Arabidopsis thaliana) (UniProt Q84WN3); assay: split reporter
T1 sequence: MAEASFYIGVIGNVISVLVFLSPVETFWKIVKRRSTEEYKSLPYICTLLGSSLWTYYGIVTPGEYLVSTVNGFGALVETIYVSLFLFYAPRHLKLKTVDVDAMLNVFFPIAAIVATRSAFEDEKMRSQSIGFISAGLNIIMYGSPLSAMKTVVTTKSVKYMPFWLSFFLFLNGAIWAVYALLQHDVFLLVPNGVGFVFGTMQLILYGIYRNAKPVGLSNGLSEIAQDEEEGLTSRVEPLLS

[2] = target: T2, SWEET17-nCerulean^C (Arabidopsis thaliana) (UniProt Q84WN3); assay: split reporter
T2 sequence: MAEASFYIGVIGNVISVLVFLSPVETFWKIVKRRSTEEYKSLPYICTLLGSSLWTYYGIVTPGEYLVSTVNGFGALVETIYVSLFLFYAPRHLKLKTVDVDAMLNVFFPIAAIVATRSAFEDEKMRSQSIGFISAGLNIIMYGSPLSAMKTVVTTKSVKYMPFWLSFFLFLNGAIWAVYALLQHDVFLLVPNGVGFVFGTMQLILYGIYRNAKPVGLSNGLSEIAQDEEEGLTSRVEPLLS

Row | Binder | binding [1] | binding [2]
1 | SWEET16-nVenus^C (protein, UniProt Q9LUR4 1-230) MADLSFYVGVIGNVISVLVFLSPVETFWRIVQRRSTEEYECFPYICTLMSSSLWTYYGIVTPGEYLVSTVNGFGALAESIYVLIFLFFVPKSRFLKTVVVVLALNVCFPVIAIAGTRTLFGDANSRSSSMGFICATLNIIMYGSPLSAIKTVVTTRSVQFMPFWLSFFLFLNGAIWGVYALLLHDMFLLVPNGMGFFLGIMQLLIYAYYRNAEPIVEDEEGLIPNQPLLA | binds | –
2 | SWEET16-cCFP^C (protein, UniProt Q9LUR4 1-230) MADLSFYVGVIGNVISVLVFLSPVETFWRIVQRRSTEEYECFPYICTLMSSSLWTYYGIVTPGEYLVSTVNGFGALAESIYVLIFLFFVPKSRFLKTVVVVLALNVCFPVIAIAGTRTLFGDANSRSSSMGFICATLNIIMYGSPLSAIKTVVTTRSVQFMPFWLSFFLFLNGAIWGVYALLLHDMFLLVPNGMGFFLGIMQLLIYAYYRNAEPIVEDEEGLIPNQPLLA | – | binds
